From article PMC10341498, “A Mannose Receptor from Litopenaeus vannamei Involved in Innate Immunity by Pathogen Recognition and Inflammation Regulation” (International Journal of Molecular Sciences, 2023)

Tested on: T1, rLvMR (LvMR, mannose receptor)
T1 construct: mature peptide without signal peptide (primers span Cys23 to residue 315 of 315) in pET32a; N-terminal Trx/His fusion, about 53 kDa
Assay: inhibition of agglutination of FITC-labelled V. parahaemolyticus, fluorescence microscopy
Type: binding, Penaeus vannamei
Details: 10 mmol L^-1 CaCl2, 4 h

[1] = two-fold steps 25-200 mmol L^-1 tested

Row | Compound | minimum concentration for complete inhibition of agglutination [1] | minimum concentration for complete inhibition of agglutination (two-fold steps 25-200 mmol L^-1 tested (25 is the lowest tested))
1 | CC(=O)N[C@H]1[C@H]([C@H](O)[C@H](O)CO)OC(O)(C(=O)O)C[C@@H]1O (stereo partly shown) [N-acetylneuraminic acid] | 50 mmol/L | 
2 | CC(=O)N[C@@H]1[C@@H](O)[C@@H](O)[C@@H](CO)O[C@H]1O [N-acetyl-β-D-galactosamine] | 200 mmol/L | 
3 | CC(=O)N[C@@H]1C(O)O[C@H](CO)[C@@H](O)[C@@H]1O (stereo partly drawn) [N-acetyl-D-mannosamine] | 200 mmol/L | 
4 | OC[C@H]1OC(O)[C@H](O)[C@@H](O)[C@@H]1O (stereo partly drawn) [D-glucose] | 100 mmol/L | 
5 | CC(=O)N[C@H]1C(O)O[C@H](CO)[C@@H](O)[C@@H]1O (stereo partly drawn) [N-acetyl-D-glucosamine] | 100 mmol/L | 
6 | OC[C@H]1OC(O)[C@@H](O)[C@@H](O)[C@@H]1O (stereo partly drawn) [D-mannose] |  | 25 mmol/L
7 | OC[C@H]1OC(O)[C@H](O)[C@@H](O)[C@H]1O (stereo partly drawn) [D-galactose] | 50 mmol/L | 
